In PMC8714094:
Results are given in words; binding and its absence hold for the method and conditions named. Binding seen in cells or lysates may run through a third protein. Some binding calls cover weakened binding; strength is not graded here. Each block holds one substance with its values, some of them ahead of it.

The chains behind the UniProt entries cited, without tags or fusion partners. Where a name states a change or a piece, a line headed by the entry shows the natural chain unless it says otherwise. A line that says so, or that is headed by a name, gives the form on record, which may keep a tag or linker. Residues count along the entry.
UniProt P63101: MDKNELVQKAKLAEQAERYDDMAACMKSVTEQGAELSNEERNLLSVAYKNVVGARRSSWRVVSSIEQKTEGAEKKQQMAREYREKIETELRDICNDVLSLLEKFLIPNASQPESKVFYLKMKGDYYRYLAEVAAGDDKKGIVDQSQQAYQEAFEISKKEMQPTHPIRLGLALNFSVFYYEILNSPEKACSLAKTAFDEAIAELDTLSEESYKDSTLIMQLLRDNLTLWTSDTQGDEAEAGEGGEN
UniProt P63104: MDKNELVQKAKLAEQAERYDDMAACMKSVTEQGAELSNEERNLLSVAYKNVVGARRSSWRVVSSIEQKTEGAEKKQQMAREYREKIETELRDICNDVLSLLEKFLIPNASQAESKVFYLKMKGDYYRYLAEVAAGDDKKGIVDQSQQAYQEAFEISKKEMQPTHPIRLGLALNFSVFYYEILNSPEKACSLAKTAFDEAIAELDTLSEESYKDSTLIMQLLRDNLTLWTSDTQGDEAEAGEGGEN
UniProt P62258: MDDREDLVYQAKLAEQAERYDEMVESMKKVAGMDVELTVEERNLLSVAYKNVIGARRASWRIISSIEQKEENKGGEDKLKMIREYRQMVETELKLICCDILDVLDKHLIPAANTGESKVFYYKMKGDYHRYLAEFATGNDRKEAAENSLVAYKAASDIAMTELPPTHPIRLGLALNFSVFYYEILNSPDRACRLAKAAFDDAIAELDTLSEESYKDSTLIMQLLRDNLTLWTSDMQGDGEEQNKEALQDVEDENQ
UniProt Q01097, residues 27-1482: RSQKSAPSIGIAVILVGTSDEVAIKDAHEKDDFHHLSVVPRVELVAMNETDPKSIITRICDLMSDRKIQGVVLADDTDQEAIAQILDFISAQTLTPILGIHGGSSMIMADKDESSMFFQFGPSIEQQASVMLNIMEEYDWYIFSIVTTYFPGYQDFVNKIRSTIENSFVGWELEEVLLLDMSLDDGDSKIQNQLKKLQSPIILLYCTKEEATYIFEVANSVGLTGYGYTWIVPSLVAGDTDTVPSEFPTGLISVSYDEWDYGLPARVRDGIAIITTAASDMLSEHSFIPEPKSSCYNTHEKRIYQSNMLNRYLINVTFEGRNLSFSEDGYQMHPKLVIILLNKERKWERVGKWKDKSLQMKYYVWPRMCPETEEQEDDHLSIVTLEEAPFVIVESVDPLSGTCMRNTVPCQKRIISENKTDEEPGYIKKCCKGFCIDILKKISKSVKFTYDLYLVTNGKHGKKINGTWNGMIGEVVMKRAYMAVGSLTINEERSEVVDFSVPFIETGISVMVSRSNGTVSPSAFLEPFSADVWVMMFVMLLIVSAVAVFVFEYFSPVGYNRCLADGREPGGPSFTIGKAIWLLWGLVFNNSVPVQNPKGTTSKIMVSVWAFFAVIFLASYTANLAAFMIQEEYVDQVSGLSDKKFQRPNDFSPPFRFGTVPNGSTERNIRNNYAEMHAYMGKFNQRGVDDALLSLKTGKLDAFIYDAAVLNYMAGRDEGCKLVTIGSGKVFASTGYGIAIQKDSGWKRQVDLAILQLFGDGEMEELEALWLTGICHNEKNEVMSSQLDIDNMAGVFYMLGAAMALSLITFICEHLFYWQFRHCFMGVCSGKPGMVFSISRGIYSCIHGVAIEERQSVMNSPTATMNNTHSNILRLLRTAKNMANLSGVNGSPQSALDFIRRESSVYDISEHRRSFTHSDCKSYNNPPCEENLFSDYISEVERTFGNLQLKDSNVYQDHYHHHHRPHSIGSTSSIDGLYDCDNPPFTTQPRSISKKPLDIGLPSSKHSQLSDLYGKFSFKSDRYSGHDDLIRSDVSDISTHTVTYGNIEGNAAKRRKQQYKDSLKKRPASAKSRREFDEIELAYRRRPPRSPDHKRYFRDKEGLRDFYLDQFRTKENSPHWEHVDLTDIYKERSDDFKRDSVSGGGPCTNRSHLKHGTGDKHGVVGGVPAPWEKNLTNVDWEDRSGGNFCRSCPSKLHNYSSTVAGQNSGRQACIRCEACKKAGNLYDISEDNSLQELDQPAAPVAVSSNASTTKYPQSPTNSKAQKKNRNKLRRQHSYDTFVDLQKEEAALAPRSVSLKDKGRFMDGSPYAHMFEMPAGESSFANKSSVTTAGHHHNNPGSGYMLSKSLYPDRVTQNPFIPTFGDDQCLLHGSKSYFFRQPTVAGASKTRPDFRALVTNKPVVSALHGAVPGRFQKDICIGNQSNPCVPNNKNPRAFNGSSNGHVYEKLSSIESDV
GluN2B (Q00960, residues 27-1482): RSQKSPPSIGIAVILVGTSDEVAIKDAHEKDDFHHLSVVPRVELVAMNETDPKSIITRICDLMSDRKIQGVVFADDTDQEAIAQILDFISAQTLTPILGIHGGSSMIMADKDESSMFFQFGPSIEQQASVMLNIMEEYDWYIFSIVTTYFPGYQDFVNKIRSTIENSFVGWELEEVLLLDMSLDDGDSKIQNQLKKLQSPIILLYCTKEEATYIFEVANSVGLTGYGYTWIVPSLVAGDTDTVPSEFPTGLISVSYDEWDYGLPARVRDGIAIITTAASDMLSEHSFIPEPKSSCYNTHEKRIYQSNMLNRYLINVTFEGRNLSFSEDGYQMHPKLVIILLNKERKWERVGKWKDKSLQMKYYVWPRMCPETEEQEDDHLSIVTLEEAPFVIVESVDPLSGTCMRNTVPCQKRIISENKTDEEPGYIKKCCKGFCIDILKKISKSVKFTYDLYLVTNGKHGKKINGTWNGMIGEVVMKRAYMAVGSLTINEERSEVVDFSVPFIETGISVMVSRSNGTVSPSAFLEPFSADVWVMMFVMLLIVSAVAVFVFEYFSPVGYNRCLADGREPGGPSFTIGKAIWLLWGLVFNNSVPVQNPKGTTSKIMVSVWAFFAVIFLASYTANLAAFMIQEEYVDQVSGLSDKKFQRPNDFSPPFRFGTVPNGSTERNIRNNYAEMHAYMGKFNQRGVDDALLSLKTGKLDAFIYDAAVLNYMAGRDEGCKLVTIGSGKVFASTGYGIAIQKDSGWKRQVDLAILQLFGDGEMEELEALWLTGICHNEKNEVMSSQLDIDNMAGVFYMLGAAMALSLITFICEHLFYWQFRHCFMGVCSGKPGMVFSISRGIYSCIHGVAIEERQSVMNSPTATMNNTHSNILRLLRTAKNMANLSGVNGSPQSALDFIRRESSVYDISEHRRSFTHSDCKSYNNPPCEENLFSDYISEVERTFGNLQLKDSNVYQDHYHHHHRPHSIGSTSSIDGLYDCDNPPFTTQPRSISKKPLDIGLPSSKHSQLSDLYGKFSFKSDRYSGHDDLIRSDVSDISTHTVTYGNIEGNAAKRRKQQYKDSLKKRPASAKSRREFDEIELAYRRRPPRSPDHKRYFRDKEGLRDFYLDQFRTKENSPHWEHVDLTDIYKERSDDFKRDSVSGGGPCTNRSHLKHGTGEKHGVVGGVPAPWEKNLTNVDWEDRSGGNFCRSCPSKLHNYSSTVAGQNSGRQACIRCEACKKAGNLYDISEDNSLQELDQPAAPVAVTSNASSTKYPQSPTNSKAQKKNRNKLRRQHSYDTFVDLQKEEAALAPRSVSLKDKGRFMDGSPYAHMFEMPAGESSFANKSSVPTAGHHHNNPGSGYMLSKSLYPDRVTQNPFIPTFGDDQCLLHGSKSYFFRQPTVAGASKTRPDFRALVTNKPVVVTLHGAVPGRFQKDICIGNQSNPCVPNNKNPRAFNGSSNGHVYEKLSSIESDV
GluN2B S1303A/S1323A (Q00960, form named): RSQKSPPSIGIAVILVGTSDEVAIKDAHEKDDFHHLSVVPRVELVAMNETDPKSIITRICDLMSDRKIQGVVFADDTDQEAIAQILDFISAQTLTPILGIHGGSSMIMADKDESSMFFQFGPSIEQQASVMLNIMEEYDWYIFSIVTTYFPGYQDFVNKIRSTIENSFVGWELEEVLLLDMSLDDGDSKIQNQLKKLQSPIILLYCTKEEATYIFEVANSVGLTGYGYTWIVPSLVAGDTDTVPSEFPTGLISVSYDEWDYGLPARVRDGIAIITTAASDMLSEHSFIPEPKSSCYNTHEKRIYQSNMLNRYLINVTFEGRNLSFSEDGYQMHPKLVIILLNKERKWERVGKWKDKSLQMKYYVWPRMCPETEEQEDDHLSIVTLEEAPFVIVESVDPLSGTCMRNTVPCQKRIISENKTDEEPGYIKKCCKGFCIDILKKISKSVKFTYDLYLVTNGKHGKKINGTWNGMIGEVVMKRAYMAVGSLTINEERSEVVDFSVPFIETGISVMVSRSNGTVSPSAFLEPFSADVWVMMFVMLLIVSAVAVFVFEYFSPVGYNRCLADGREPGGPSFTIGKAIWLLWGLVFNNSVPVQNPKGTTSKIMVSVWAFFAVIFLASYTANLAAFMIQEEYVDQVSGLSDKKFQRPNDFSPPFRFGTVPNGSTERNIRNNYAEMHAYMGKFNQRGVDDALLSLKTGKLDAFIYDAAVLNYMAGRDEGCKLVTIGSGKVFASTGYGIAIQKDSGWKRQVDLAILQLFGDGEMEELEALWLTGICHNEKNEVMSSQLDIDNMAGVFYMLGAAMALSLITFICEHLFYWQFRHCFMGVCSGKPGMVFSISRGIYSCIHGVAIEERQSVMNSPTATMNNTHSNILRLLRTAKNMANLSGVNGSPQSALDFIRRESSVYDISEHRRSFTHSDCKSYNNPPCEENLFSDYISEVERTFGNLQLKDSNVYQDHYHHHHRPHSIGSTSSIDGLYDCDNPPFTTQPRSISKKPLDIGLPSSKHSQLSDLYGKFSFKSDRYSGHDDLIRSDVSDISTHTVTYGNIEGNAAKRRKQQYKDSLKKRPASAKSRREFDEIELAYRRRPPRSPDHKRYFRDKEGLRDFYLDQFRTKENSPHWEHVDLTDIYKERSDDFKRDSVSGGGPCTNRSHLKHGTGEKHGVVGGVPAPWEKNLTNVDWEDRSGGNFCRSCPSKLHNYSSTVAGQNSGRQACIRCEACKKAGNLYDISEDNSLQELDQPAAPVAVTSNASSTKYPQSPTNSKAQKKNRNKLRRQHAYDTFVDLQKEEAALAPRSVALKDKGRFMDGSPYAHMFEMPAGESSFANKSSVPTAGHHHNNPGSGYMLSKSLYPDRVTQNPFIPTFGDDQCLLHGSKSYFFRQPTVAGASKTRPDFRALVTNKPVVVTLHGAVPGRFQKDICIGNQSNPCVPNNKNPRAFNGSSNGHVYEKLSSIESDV

Tests used:
[1] = biological target: 14-3-3ζ (endogenous, mouse hippocampus) (mouse (endogenous in hippocampus)) (UniProt P63101); test: co-IP; mouse hippocampal lysate in RIPA buffer; IP with rabbit polyclonal anti-14-3-3ζ, rabbit IgG (anti-mCherry) as negative control; six washes with RIPA containing 0.2% SDS; blots for GluN1, GluN2A, GluN2B
[2] = biological target: HA-tagged 14-3-3ζ (human) (UniProt P63104); test: co-IP; tsA201 cells co-expressing GluN1-1a and GluN2A with HA-14-3-3ζ or ε; anti-HA IP from lysate (1% Triton X-100, 10 mM EDTA, 120 mM NaCl, 50 mM KCl, 50 mM NaF, 2 mM DTT), blots for GluN1 and GluN2A
[3] = biological target: HA-tagged 14-3-3ζ (human) (UniProt P63104); test: co-IP; tsA201 cells expressing GluN2A S1291A/S1312A and GluN1 with HA-14-3-3ζ or ε; anti-HA IP, blots for GluN1 and GluN2A; preliminary findings
[4] = biological target: HA-tagged 14-3-3ε (human) (UniProt P62258); test: as above
[5] = biological target: HA-tagged 14-3-3ζ (human) (UniProt P63104); test: co-IP; tsA201 cells co-expressing GluN1-1a and GluN2B with HA-14-3-3ζ or ε; anti-HA IP from lysate (1% Triton X-100, 10 mM EDTA, 120 mM NaCl, 50 mM KCl, 50 mM NaF, 2 mM DTT), blots for GluN1 and GluN2B
[6] = biological target: HA-tagged 14-3-3ζ (human) (UniProt P63104); test: co-IP; tsA201 cells expressing GluN2B S1303A/S1323A and GluN1 with HA-14-3-3ζ or ε; anti-HA IP, blots for GluN1 and GluN2B; preliminary findings
[7] = biological target: HA-tagged 14-3-3ε (human) (UniProt P62258); test: as above

binding [1]: binds
Substance: GluN2A (endogenous, mouse hippocampus) (from UniProt P35436 23-1464) (receptor)

binding [2]: binds
Substance: GluN2A (from UniProt Q00959 23-1464) (receptor)

binding [3]: binds
binding [4]: binds
Substance: GluN2A S1291A/S1312A (from UniProt Q00959 23-1464) (receptor)

binding [1]: binds
Substance: GluN2B (endogenous, mouse hippocampus) (from UniProt Q01097 27-1482) (receptor)

binding [5]: binds
Substance: GluN2B (from UniProt Q00960 27-1482) (receptor)

binding [6]: binds
binding [7]: binds
Substance: GluN2B S1303A/S1323A (from UniProt Q00960 27-1482) (receptor)
